Reference: publication PMC4585913, “Crystal structure of Streptococcus pneumoniae pneumolysin provides key insights into early steps of pore formation” (Scientific Reports, 2015)
No constants are given. Whether binding was seen depends on the method and setting.

Amino acid sequences for entries named in this document (tags omitted). Residues count along the entry.
UniProt P0C2J9, residues 2-470: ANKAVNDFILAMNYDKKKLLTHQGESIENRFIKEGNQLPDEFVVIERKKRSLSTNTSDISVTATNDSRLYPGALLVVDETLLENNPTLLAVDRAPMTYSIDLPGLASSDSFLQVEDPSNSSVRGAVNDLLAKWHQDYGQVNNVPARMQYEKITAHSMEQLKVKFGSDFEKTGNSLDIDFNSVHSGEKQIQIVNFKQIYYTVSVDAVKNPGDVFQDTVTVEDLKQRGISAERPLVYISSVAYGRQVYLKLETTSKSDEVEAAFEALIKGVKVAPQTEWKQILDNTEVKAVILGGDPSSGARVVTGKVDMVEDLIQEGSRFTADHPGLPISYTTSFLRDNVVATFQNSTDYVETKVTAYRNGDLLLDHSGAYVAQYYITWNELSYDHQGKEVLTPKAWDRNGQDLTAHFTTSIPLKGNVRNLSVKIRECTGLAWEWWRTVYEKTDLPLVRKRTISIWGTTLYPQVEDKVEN

Key:
[1] = molecular target: Pneumolysin (Hexahis-PLY, wild type) (Streptococcus pneumoniae) (UniProt P0C2J9); test: SEC-SAXS; PLY 80 ul at 5.35 mg/ml in 20 mM Tris-HCl pH 7.5, 150 mM NaCl, 1 mM DTT; in-line gel filtration at 298 K; only samples incubated at 25 °C; both purified
[2] = molecular target: Pneumolysin (Hexahis-PLY, wild type) (Streptococcus pneumoniae) (UniProt P0C2J9); test: dynamic light scattering; PLY 0.2 mg/ml in 150 mM NaCl, 10 mM Tris-HCl pH 7.5, 2 mM EDTA; incubated at 25 °C for 10 minutes; both purified

Which binding [1] does the source give for “Pneumolysin (Hexahis-PLY, wild type) (from UniProt P0C2J9 2-470)” here?
The binding was “no binding (condition: at 25 °C (5.35 mg/ml))”.

And the binding [2]?
The binding was “no binding (condition: at 25 °C (0.2 mg/ml))”.
